Source: PubChem BioAssay AID933 (National Center for Advancing Translational Sciences (NCATS), 2007)
Where “and” joins values, the source holds several entries; their conditions need not be identical. Identical values can stand only once. Inconclusive results, whose numbers are uncertain, are shown with a selection of clear calls. Potencies of inconclusive entries are doubtful fits and often do not repeat. “Side channel” marks fits to a control or component signal instead of the main read-out. Calls of active or inactive are those of the source. Calls follow the shape of the dose curve; as a rule, active = well fitted activation curve with a large enough effect in the signal ratio, with a control signal flat; inconclusive = small, poorly fitted or top-dose-only effect, or a change in a side signal; inactive = flat fitted curve, though single readings scatter; the % refers to the signal ratio.
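For activation in this document: HEK 293 cells stably expressing human TSHR with RO 20-1724 phosphodiesterase inhibitor; % of control where 0% means no effect.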
Potency is read from the fitted curve at half-maximal effect.

Amino acid sequences for entries named in this document (tags omitted).
UniProt P16473, whole entry, looked up: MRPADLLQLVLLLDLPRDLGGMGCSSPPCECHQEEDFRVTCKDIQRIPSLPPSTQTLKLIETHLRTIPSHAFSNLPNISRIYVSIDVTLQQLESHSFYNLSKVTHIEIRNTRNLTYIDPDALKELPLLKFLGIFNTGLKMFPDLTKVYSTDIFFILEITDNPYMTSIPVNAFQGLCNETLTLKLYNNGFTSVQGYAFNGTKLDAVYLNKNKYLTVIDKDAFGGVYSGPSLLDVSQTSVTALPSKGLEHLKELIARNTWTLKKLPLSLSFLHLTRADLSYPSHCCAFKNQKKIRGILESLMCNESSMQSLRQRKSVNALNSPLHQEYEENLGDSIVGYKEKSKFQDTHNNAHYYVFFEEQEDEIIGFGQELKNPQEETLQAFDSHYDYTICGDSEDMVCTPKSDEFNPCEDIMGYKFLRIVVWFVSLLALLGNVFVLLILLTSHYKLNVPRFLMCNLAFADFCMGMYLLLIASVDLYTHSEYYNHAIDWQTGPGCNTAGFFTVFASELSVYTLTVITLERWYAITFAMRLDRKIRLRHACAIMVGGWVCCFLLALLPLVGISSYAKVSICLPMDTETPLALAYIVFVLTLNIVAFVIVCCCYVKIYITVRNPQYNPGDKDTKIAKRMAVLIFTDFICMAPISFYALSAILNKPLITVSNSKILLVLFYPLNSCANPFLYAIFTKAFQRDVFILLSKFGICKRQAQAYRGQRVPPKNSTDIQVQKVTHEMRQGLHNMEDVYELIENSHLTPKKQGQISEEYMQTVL

What follows are compounds tested against Thyrotropin receptor (Homo sapiens) (UniProt P16473) (assay: Secondary Concentration-Response Assay for Agonists of the Thyroid Stimulating Hormone Receptor: HTRF Activity Detection). Conditions: HEK293-TSHR cells, cAMP HTRF ratio, 30 min; series mostly up to 91.7 µM; activation: at the top concentration.
Source text: NIH Chemical Genomics Center [NCGC]
NIH Molecular Libraries Screening Centers Network [MLSCN]
PI Name: Dr. Marvin Gershengorn, NIH
Confirmation of Thyroid Stimulating Hormone Receptor Agonists
TSH is an alpha/beta heterodimeric glycoprotein hormone secreted from the anterior pituitary gland which belongs to the glycoprotein hormone family. The actions of TSH are mediated by a seven-transmembrane receptor, which upon TSH binding couples preferentially to the G-alpha (s) protein (Gs), resulting in activation of adenylate cyclase and increase in cyclic adenosine 3', 5' monophosphate (cAMP). The TSH receptor (THSR) is mainly expressed in thyroid follicular cells and regulates their growth and function. Recombinant TSH is used to activate TSHR in patients with thyroid cancer receiving thyroid hormone suppression therapy and to screen for residual tumor after surgery, but it is expensive and must be administered intramuscularly. An orally active small molecule TSHR agonist would serve as an invaluable research tool for studying TSHR pharmacology and physiology, and would have multiple advantages in therapeutic settings. However, no selective small molecule agonist of the TSH receptor exists, and no small molecule screen for TSHR agonists has ever been reported.
A confirmatory assay of putative TSHR agonists was conducted on a different TSHR transfected HEK 293 cell line, using an orthogonal detection technology to measure cAMP stimulation: antibody-based Homogeneous Time Resolved Fluorescence (HTRF).
NCGC Assay Protocol Summary:
Homogeneous Time Resolved Fluorescence (HTRF) cAMP Assay. HEK 293 cells stably transfected with a vector containing the TSHR and maintained under hygromycin selection were obtained from the laboratory of Dr. Marvin Gershengorn. Compounds were assayed using a HTRF cAMP detection kit (Cisbio) on the TSHR transfected cell line. Briefly, 750 cells were plated in 2.5 ul/well of complete media (DMEM containing 10 % FCS, and 100 uM RO 20-1724) in 1536 well solid bottom white plates and 23 nl/well compound in DMSO solution or controls was added. Following 30 minute incubation at room temperature, 2.5 ul/well of labeled d2 cAMP and 2.5 ul/well of anti-cAMP antibody (both diluted 1:20 in lysis buffer) were added to each well using a flying reagent dispenser (Aurora Discovery, San Diego) . Plates were measured using the Envision plate reader (PerkinElmer, Boston, MA) with excitation at 330 nm and emissions of 615 nm and 660 nm.
Keywords: Thyroid-stimulating hormone TSH, TSHR, TSHR agonist, quantitative high throughput screening, qHTS, HTS, probe identification, CNG, cAMP, cyclic nucleotide gated ion channel PubChem
For `CC(C)c1ccc(C2C3=C(CC(c4ccco4)CC3=O)Nc3nc(C(F)(F)F)nn32)cc1` (stereo not given), the Potency was inconclusive: 44.7 µM [side channel, falling, partial curve]. For `COc1ccc([C@H]2[C@H](c3ccccc3)C(=O)N2Cc2ccccc2)cc1COc1ccc(NC(C)=O)cc1`, the Potency was inconclusive: 12.6 µM [activator, full curve]. `COc1ccc(C2Nc3ccccc3C(=O)N2c2ccc(F)cc2)cc1CSc1ccccn1` (stereo not given) was tested, and the Potency was inconclusive: 39.8 µM [side channel, rising, partial curve]. `Cc1ccc(C)c(Cn2c(C(C)O)nc3ccccc32)c1` (stereo not given) was tested, and the Potency was inconclusive: 35.5 µM [activator, partial curve]. In the case of `COc1ccc(C2Nc3ccccc3C(=O)N2Cc2ccncc2)cc1COc1ccc(NC(C)=O)cc1` (stereo not given), the Potency is reported as inconclusive: 39.8 µM [activator, partial curve]. In the case of `Cc1cccc(OCC(=O)OCC(=O)c2c(N)n(C)c(=O)n(C)c2=O)c1`, the Potency is reported as inconclusive: 20 µM [activator, full curve]. With `COc1ccc(CN(Cc2ccccc2)C(=O)COC(C)=O)cc1COc1ccc(NC(C)=O)cc1` the Potency was inconclusive: 50.1 µM [activator, partial curve, poor fit]. `COc1ccc(C(=O)N(Cc2cccs2)Cc2cccs2)c(O)c1` was tested, and the Potency was active: 15.8 µM. For `O=C(COC(=O)C12CC3CC(CC(C3)C1)C2)NCc1ccco1`, the Potency was inconclusive: 12.6 µM [activator, full curve]. `CCC(=O)Nc1ccc(OCc2cc(C3Nc4ccccc4C(=O)N3Cc3ccccc3)ccc2OC)cc1` (stereo not given) was tested, and the “activation” value was inactive: 28%. `Cc1nn(C)c(C)c1S(=O)(=O)N(CC(=O)Nc1nccs1)c1ccc(C(C)C)cc1` was tested, and the activation was inactive: 0.117% [at 0.00035 µM]. For `COc1ccc(CN(Cc2ccccc2)C(=O)c2ccco2)cc1COc1ccc(NC(C)=O)cc1`, the Potency was active: 15.8 µM. With `O=C(c1cc(Br)ccc1O)N(Cc1ccco1)Cc1cccs1` the “activation” value was inactive: 6.91%. In the case of `COc1ccc(C(=O)C2C(=O)C(=O)N(Cc3ccco3)C2c2cccs2)cc1` (stereo not given), the Potency is reported as inconclusive: 25.1 µM [side channel, rising, partial curve, poor fit]. For `O=C1C2C3CCCC3=C3CCCC3C2C(=O)N1c1ccc(Cl)cc1` (stereo not given), the Potency was inconclusive: 44.7 µM [activator, partial curve] and inconclusive: 14.1 µM [activator, full curve, poor fit]. With `COc1ccc(C2Nc3ccccc3C(=O)N2CCc2ccccc2)cc1COc1ccc(NC(C)=O)cc1` (stereo not given) the Potency was active: 7.94 µM. For `COc1ccc(C=O)cc1COc1ccc(NC(C)=O)cc1`, the “activation” value was inactive: 4.44%. In the case of `COc1ccc(N2C(=O)c3ccccc3NC23C(=O)N(C)c2ccccc23)cc1` (stereo not given), the “activation” value is reported as inactive: 0.828%. In the case of `CCOc1ccc(C(C)=O)cc1COc1ccc(-n2cnnn2)cc1`, the Potency is reported as inconclusive: 0.501 µM [side channel, falling, full curve, poor fit]. For `O=c1c2c(-c3ccccc3)csc2ncn1/N=C/c1cn(-c2ccccc2)nc1-c1cccs1`, the “activation” value was inactive: 0.928%. In the case of `COc1ccc(C2Oc3ccccc3C(=O)N2Cc2ccccc2)cc1COc1ccc(NC(C)=O)cc1` (stereo not given), the Potency is reported as active: 12.6 µM. In the case of `COc1ccc(C2Nc3ccc(Cl)cc3C(=O)N2Cc2ccccc2)cc1COc1ccc(NC(C)=O)cc1` (stereo not given), the Potency is reported as active: 14.1 µM. In the case of `O=C(c1ccccc1O)N(Cc1ccccc1)Cc1ccccc1`, the Potency is reported as inconclusive: 28.2 µM [activator, partial curve, poor fit]. For `COc1ccc(-c2nc3ccccc3c(=O)n2Cc2ccc(CNC(=O)CO)cc2)cc1COc1ccc(NC(C)=O)cc1`, the Potency was inconclusive: 35.5 µM [activator, partial curve]. With `COc1ccc(C2Nc3ccccc3C(=O)N2Cc2ccc(CNC(=O)CO)cc2)cc1COc1ccc(NC(C)=O)cc1` (stereo not given) the Potency was inconclusive: 31.6 µM [activator, partial curve]. In the case of `CCN(CC)CCN1C(=O)c2ccccc2NC1c1ccc(OC)c(COc2ccc(NC(C)=O)cc2)c1` (stereo not given), the “activation” value is reported as inactive: 2.5%. With `COc1ccc(C2Nc3ccccc3C(=O)N2Cc2cccc(-c3ccccc3)c2)cc1COc1ccc(NC(C)=O)cc1` (stereo not given) the Potency was active: 2.24 µM. For `COc1cc(C2Nc3ccccc3C(=O)N2c2ccc3c(c2)OCCO3)ccc1OCC(C)C` (stereo not given), the “activation” value was inactive: 1%. With `COc1ccc(C(=O)N(Cc2ccco2)Cc2ccco2)c(O)c1` the Potency was inconclusive: 39.8 µM [activator, partial curve]. With `COc1ccc(C2Nc3ccccc3C(=O)N2Cc2ccccc2)cc1COc1cccc(C)c1` (stereo not given) the Potency was inconclusive: 14.1 µM [activator, partial curve, poor fit]. For `O=C1CC(c2ccco2)CC2=C1C(c1ccncc1)n1nc(C(F)(F)F)nc1N2` (stereo not given), the Potency was inconclusive: 79.4 µM [side channel, falling, single point]. For `O=C(c1ccccc1O)N(Cc1cccs1)Cc1cccs1`, the Potency was inconclusive: 31.6 µM [activator, partial curve, poor fit]. For `CCCN1C(=O)c2ccccc2NC1c1cc(OC)c(OC)c(OC)c1` (stereo not given), the “activation” value was inactive: 1.24%. In the case of `COc1ccc(CN(Cc2ccccc2)C(=O)c2ccccc2O)cc1COc1ccc(NC(C)=O)cc1`, the Potency is reported as inconclusive: 14.1 µM [activator, full curve]. In the case of `COc1ccc(CN(Cc2ccccc2)C(=O)c2ccncc2)cc1COc1ccc(NC(C)=O)cc1`, the Potency is reported as inconclusive: 25.1 µM [activator, full curve]. For `COc1cc(C2Nc3ccccc3C(=O)N2c2ccccc2)ccc1O` (stereo not given), the “activation” value was inactive: 1.29%. With `COc1ccc(C2Nc3ccccc3C(=O)N2Cc2ccco2)cc1COc1ccc([N+](=O)[O-])cc1` (stereo not given) the Potency was inconclusive: 39.8 µM [side channel]. In the case of `NC(=O)c1nsc(C(=O)N(CC(=O)NC2CCCCC2)Cc2ccc3c(c2)OCO3)c1N`, the Potency is reported as inconclusive: 0.0316 µM [side channel, rising, partial curve, poor fit]. In the case of `COc1cccc(CN2C(=O)c3ccccc3NC2c2ccc(OC)c(COc3ccc(NC(C)=O)cc3)c2)c1` (stereo not given), the Potency is reported as active: 6.31 µM. With `COc1ccc(CN(Cc2ccccc2)C(=O)C2CC2)cc1COc1ccc(NC(C)=O)cc1` the Potency was active: 15.8 µM.
